Results reported in patent US8309582B2, “Small molecule Bcl-Xl/Bcl-2 binding inhibitors” (The Ohio State University Research Foundation, priority 2004, dated 2012).
At least one structure is not confirmed: it was looked up by name or label, or the drawing left a doubt.

Test system: PC-3 cells
Experiment: Cell viability analysis (MTT) in PC-3 cells
Format: cell-based
Settings: even at 50 μM, 24 h, serum-free medium
Method: Cell viability analysis. The effect of individual test agents on cell viability was assessed by using the MTT {[3-(4,5-dimethylthiazol-2-yl)-2,5-diphenyl-2H-tetrazolium bromide]} assay in six to twelve replicates. […] Controls received DMSO vehicle at a concentration equal to that in drug-treated cells. […] Supernatants were removed from the wells, and the reduced MTT dye was solubilized in 200 μl/well DMSO. Absorbance at 570 nm was determined on a plate reader.
Determination of IC50 values. Data from cell viability and FP assays were analyzed by using the CalcuSyn software (Biosoft, Ferguson, Mo.) to determine IC50 values, in which the calculation was based on the medium effect equation (18), i.e., Log(fa/fu)=m log(D)−m log(Dm) (equation 1), where fa and fu denote fraction affected and unaffected, respectively; m represents the Hill-type coefficient signifying the sigmoidicity of the dose-effect curve; D and Dm are the dose used and IC50, respectively.

With `CN(CCOc1ccc(CC2SC(=O)NC2=O)cc1)c1ccccn1` (stereo not shown) [RG, rosiglitazone, reference compound] the “effects on apoptotic death in PC-3 cells” value was “marginal effects”.
